This is an account of results in patent US20230372361A1, “USE OF OXYGENATED CHOLESTEROL SULFATES FOR TREATING INFLAMMATORY CONDITIONS” (Durect Corporation, priority 2020, published 2023).

The test system of the data set is Huh-7 cells. Nature of the data set: Whole genome bisulfite sequencing (WGBS), promoter 5mCpG demethylation. It counts as cell-based, human. The protocol: Huh-7 and HepG-2 cells were cultured in DMEM media supplemented with 10% heat-inactivated fetal bovine serum (FBS), high glucose (HG, 4.5 g/L) at 37° C. in a humidified atmosphere of 5% CO2.
Each sample, 2 was sent to EpigenDx, Inc. (Hopkinton, MA) for analysis of global methylation bisulfite sequencing. The same samples, 6 μg, were sent to Novogene Co., Ltd (Tianjin, China) for analysis of whole genome bisulfite sequencing (WGBS). Total RNA was isolated using the Promega SV total RNA isolation system (Madison, WI) with DNase treatment. Each sample, 2 was used for the first-strand cDNA synthesis as recommended by the manufacturer (Invitrogen, Carlsbad, CA). Real-time RT-PCR was performed using SYBR Green as the indicator on ABI 7500 Fast Real-Time PCR System (Applied Biosystems, Foster City, CA). Amplifications of β-actin or GAPDH were used as internal controls. Relative messenger RNA (mRNA) expression was quantified with the comparative cycle threshold (Ct) method using the primer set shown in Table 1.1 and was expressed as 2^−ΔΔct.
Analysis of Whole Human Genome Bisulfite Sequencing (WGBS) Each sample, 5.2 μg of genomic DNA spiked with 26 ng lambda DNA, was fragmented by sonication to 200-300 bp with Covaris S220, followed by end repair and adenylation. Cytosine-methylated barcodes were ligated to sonicated DNA per the manufacturer's instructions. These DNA fragments were treated twice with bisulfite using EZ DNA Methylation-Gold™ Kit (Zymo Research) before the resulting single-strand DNA fragments were PCR amplified using KAPA HiFi Hot Start Uracil and Ready Mix (2×). Library concentration was quantified by Qubit® 2.0 Flurometer (Life Technologies, CA, USA) and quantitative PCR, and the insert size was assayed on an Agilent Bioanalyzer 2100 system.
The library preparations were sequenced on an Illumina Hiseq 2500/4000 or Novaseq platform and 125 bp/150 bp paired-end reads were generated. Image analysis and base calling were performed with Illumina CASAVA pipeline. Trimmomatic (Trimmomatic-0.36) software was used for quality control. Bismark software (version 0.16.3; Krueger F, 2011) was used to perform alignments of bisulfite-treated reads to a reference genome (-X 700--dovetail). DSS software (23) was used to identify differentially methylated regions (DMRs). KOBAS software was used to test the statistical enrichment of DMR related genes in the Kyoto Encyclopedia of Genes and Genomes (KEGG) pathways.
Each sample (6 μg) was used for analysis of the whole genome bisulfite sequencing (WGBS).

Regarding `C[C@H](CCCC(C)(C)O)[C@H]1CC[C@H]2[C@@H]3CC=C4C[C@@H](OS(=O)(=O)O)CC[C@]4(C)[C@H]3CC[C@]12C` [25HC3S, 25-hydroxycholesterol-3-sulfate], the “number of genes in Calcium pathway with 5mCpG demethylated in promoter regions” value (25 μM, 4 hours, of 180 total genes) is 19 genes. The “number of genes in cAMP pathway with 5mCpG demethylated in promoter regions” value (25 μM, 4 hours, of 200 total genes) is 28 genes. For the setting “25 μM, 4 hours, of 257 total genes”, the “number of genes in MAPK signaling pathway with 5mCpG demethylated in promoter regions” value amounted to 23 genes. Where the note is “high glucose model”, the “number of KEGG pathways the demethylated genes are involved in” value stood at 79 KEGG pathways and the “number of genes with 5mCpG converted to CpG in promoter regions” value is recorded as 1074 genes.
